Reference: article doi:10.1101/329136

What was measured:
[1] = biological target: talin VBS1 (H1-H4) residues 482-636; assay: ITC
[2] = biological target: talin VBS1 (H1-H4) residues 482-636; assay: native gel or EMSA

Binder | binding [1] | binding [2]
TRETIFEASKAVTNSLSNLISLIGT [IpaA VTBS K498A peptide] | binds | –
TRETIFEASKKVTNSLSNLISLIGT [IpaA VTBS peptide (488-512)] | – | binds
AIYEKAKEVSSALSKVLSKIDD (peptide, UniProt P18010 565-586) [IpaA VBS2 peptide (565-586)] | no binding | –

Results are given in words; binding and its absence hold for the method and conditions named. A result given as binding can be weak or reduced; the word gives no strength.
